Not every detail of the peptide structures is certain; ends, links or a residue may be inferred.
Key:
[1] = system: portal vein glucagon; assay: Decrease of portal vein glucagon levels in anesthetized rats, compared to somatostatin; format: in vivo, Male Sprague-Dawley rats; details: multiples or fractions of the effect of somatostatin (=1), external jugular vein administration, portal vein blood after 5 minutes
[2] = system: Growth Hormone Release; assay: Growth hormone release inhibition relative to somatostatin; details: multiples or fractions of the effect of somatostatin (somatostatin = arbitrary value of 1)

C[C@H](N)C(=O)NCC(=O)N[C@H]1CSSC[C@@H](C(=O)O)NC(=O)[C@H](CO)NC(=O)[C@H]([C@@H](C)O)NC(=O)[C@H](Cc2ccccc2)NC(=O)[C@H]([C@@H](C)O)NC(=O)[C@H](CCCCN)NC(=O)[C@H](Cc2c[nH]c3ccccc23)NC(=O)[C@H](Cc2ccccc2)NC(=O)[C@H](Cc2ccccc2)NC(=O)[C@H](CC(N)=O)NC(=O)[C@H](CCCCN)NC1=O [Somatostatin]
Glucagon Inhibition [1]: 1 | Growth Hormone Release Inhibition [2]: 1

From patent publication US4611054A, “Cyclic hexapeptide somatostatin analogs” (Merck & Co., Inc., priority 1985, dated 1986)
